Source: PubChem BioAssay AID720549 (National Center for Advancing Translational Sciences (NCATS), 2013)
Values joined by “and” are separate entries in the source; they are usually repeats but may differ in a detail not shown here. Identical values can stand only once. Inconclusive means that the source gave no clear call. Such entries were picked first, then a sample of the others. A potency beside an inconclusive call is a rough fit, not a confirmed value. Active and inactive are the calls of the source. Calls come from the whole dose curve; as a rule, active = well fitted inhibition curve with a large enough effect; inconclusive = small, poorly fitted or top-dose-only effect; inactive = flat fitted curve, though single readings scatter.

Amino acid sequences for entries named in this document (tags omitted). A change or cut given only in a name is not applied to a line headed by its entry.
UniProt P54132: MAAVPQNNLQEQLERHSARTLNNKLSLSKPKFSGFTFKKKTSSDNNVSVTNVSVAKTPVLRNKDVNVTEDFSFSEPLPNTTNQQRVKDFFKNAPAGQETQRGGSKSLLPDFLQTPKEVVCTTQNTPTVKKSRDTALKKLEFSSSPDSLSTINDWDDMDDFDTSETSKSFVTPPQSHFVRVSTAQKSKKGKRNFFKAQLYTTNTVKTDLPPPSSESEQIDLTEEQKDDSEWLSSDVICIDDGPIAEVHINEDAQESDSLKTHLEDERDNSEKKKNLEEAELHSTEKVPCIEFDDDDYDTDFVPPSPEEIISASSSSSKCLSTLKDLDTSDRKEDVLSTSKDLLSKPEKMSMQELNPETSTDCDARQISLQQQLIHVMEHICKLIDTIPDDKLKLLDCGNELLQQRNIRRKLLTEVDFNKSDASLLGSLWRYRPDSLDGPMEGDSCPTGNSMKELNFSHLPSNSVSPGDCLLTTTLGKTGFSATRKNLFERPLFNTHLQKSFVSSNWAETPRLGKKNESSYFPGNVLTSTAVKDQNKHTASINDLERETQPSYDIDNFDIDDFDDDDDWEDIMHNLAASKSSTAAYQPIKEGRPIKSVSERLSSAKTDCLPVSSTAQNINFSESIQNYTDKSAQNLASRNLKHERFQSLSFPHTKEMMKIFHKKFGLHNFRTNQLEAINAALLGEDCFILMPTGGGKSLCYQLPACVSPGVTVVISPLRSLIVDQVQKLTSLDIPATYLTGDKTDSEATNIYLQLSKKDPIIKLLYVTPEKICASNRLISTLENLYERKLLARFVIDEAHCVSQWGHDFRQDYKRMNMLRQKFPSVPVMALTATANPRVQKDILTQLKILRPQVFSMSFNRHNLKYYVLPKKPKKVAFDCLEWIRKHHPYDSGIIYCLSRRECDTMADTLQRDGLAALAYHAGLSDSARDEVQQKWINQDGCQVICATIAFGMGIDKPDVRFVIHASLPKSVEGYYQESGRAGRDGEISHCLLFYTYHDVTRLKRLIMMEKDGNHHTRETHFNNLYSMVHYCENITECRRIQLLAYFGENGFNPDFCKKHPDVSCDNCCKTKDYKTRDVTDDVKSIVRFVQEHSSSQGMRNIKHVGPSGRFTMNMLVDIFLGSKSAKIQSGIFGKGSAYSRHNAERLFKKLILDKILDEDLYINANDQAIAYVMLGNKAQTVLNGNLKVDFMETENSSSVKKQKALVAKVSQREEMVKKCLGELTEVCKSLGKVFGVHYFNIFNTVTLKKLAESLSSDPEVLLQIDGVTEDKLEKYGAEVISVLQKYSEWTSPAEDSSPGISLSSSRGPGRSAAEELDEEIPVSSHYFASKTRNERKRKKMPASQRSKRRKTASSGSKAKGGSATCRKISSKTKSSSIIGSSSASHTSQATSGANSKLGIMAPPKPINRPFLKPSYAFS

target: RecQ-like DNA helicase BLM (Homo sapiens) (UniProt P54132); experiment: qHTS for Inhibitors of Bloom's syndrome helicase (BLM): Helicase ATPase Orthogonal Confirmatory Assay for SAR; conditions: purified BLM helicase ATPase activity assay; series mostly up to 57.1 µM
How it was run: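 Purified BLM (2 nM) in Tris-HCl pH 8.0 with MgCl2, DTT, Tween-20, preincubated 15 min with compound. Reaction with 200 nM ssDNA and 100 uM ATP ran 15 min; ADP-Glo luminescence, four-parameter Hill fit.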

| SMILES | Potency |
| --- | --- |
| Fc1ccc(NC(=S)Nc2nnc(-c3ccncc3)s2)cc1C(F)(F)F | inconclusive: 22.9 µM [inhibitor, partial curve, poor fit] |
| O=C(Nc1ccc(-n2cncn2)c(F)c1)Nc1nnc(-c2ccncc2)s1 | inconclusive: 0.913 µM [inhibitor, full curve, poor fit] |
| O=C(Nc1ccccc1)Nc1nnc(-c2ccncc2)s1 | inconclusive: 0.0007 µM [inhibitor] |
| O=C(Nc1ccc(Br)c(Br)c1)Nc1nnc(-c2ccncc2)s1 | inconclusive: 18.2 µM [inhibitor, partial curve] |
| Cc1cc(NC(=O)Nc2nnc(-c3ccncc3)s2)ccc1C#N | active: 1.29 µM |
| Nc1cc(NC(=O)Nc2nnc(-c3ccncc3)s2)ccc1Cl | active: 20.4 µM |
| N#Cc1cc(NC(=O)Nc2nnc(-c3ccncc3)s2)ccc1Br | active: 0.646 µM |
| O=C(Nc1ccc(Br)c(Br)c1)Nc1nnc(-c2cccnc2)s1 | inconclusive: 8.13 µM [inhibitor, partial curve, poor fit] |
| Cc1ccc(NC(=O)Nc2nnc(-c3ccncc3)s2)cc1C | inconclusive: 20.4 µM [inhibitor, partial curve] |
| O=C(Nc1nnc(-c2ccncc2)s1)Nc1ccc(Cl)cc1Cl | inconclusive: 3.54 µM [inhibitor, full curve] |
| O=C(Nc1nnc(-c2ccncc2)s1)Oc1ccc2ccccc2c1 | active: 32.4 µM |
| O=C(Nc1ccc2ccccc2c1)Nc1nnc(-c2ccc(Cl)cc2)s1 | inactive |
| N#Cc1cc(NC(=O)Nc2nnc(-c3ccncc3)s2)ccc1Cl | inconclusive: 0.0646 µM [inhibitor, full curve] |
| O=C(Nc1ccc2ccccc2c1)Nc1nnc(-c2ccccn2)s1 | inactive |
| O=C(Nc1ccc(-n2cncn2)c(C(F)(F)F)c1)Nc1nnc(-c2ccncc2)s1 | active: 20.4 µM |
| O=C(Nc1ccc2sccc2c1)Nc1nnc(-c2ccncc2)s1 | active: 7.25 µM |
| CC(=O)c1ccc(NC(=O)Nc2nnc(-c3ccncc3)s2)cc1 | inactive |
| Cc1cc(NC(=O)Nc2nnc(-c3cccnc3)s2)ccc1Cl | inconclusive: 3.24 µM [inhibitor, full curve] and inconclusive: 3.24 µM [inhibitor, full curve, poor fit] |
| Cc1cc(NC(=O)Nc2nnc(-c3ccncc3)s2)ccc1-c1cn[nH]c1 | inconclusive: 25.7 µM [inhibitor, partial curve, poor fit] |
| O=C(Nc1ccc(-n2ccnc2)c(F)c1)Nc1nnc(-c2ccncc2)s1 | active: 14.5 µM |
| O=C(Nc1ccc(Cl)c([N+](=O)[O-])c1)Nc1cccc(-c2ccncc2)n1 | inconclusive: 0.0009 µM [inhibitor, full curve, poor fit] |
| N#Cc1cc(NC(=O)Nc2cccc(-c3ccncc3)n2)ccc1Cl | inconclusive: 2.29 µM [inhibitor, full curve] |
| O=C(Nc1ccc(-c2cn[nH]c2)cc1)Nc1nnc(-c2ccncc2)s1 | inconclusive: 20.4 µM [inhibitor, partial curve, poor fit] |
| O=C(Nc1ccc2c(c1)OCO2)Nc1nnc(-c2ccncc2)s1 | inconclusive: 20.4 µM [inhibitor, partial curve] |
| O=C(Nc1ccc2ccccc2c1)Nc1nnc(Br)s1 | inactive |
| O=C(Nc1cccc(C(F)(F)F)c1)Nc1nnc(-c2ccncc2)s1 | inconclusive: 10.2 µM [inhibitor, full curve, poor fit] |
